Data reported in patent US20250011427A1 (CONCEPT TO MEDICINE BIOTECH, published 2025).
These are yes or no findings as the source states them, for the method shown. Some entries that bind do so weakly or less than the wild type.

Chains of the proteins cited; added tags and fusions are not shown. Lines headed by an entry give the natural chain unless they say otherwise; changes in a name come on top.
UniProt Q95LI5: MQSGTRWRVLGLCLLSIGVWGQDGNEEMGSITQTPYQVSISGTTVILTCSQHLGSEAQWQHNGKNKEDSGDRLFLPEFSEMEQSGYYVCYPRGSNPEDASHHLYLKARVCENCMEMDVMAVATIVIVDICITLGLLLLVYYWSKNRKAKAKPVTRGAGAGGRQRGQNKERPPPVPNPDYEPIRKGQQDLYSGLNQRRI
UniProt Q95LI8: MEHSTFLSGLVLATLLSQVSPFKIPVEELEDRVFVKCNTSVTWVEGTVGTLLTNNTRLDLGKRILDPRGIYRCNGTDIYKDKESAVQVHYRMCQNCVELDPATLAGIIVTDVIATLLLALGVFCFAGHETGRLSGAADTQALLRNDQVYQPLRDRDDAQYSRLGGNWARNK
UniProt Q95LI7: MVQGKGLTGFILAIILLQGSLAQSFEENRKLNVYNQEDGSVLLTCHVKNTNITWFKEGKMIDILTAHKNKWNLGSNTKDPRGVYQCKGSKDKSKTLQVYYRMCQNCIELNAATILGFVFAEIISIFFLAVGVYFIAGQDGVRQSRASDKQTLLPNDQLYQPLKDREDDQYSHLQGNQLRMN
UniProt P07766: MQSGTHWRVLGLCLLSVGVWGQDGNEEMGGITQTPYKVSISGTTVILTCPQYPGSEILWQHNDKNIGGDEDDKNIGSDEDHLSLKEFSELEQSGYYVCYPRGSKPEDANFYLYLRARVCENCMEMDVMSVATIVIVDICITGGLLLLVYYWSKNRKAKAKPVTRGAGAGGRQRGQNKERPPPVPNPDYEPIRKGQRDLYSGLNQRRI
UniProt P04234: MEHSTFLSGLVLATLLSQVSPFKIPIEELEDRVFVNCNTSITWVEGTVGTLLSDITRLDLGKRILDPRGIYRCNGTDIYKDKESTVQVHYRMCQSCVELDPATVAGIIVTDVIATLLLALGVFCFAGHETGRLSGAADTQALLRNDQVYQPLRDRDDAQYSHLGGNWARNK
UniProt P09693: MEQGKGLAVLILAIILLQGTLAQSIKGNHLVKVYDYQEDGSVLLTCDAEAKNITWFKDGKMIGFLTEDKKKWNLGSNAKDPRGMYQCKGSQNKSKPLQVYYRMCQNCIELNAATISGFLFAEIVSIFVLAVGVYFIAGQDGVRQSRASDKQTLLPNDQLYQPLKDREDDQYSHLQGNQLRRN

How the values were obtained:
[1] = biological target: T1, cynomolgus CD3 on cynomolgus PBMC (cynomolgus) (UniProt Q95LI5+Q95LI8+Q95LI7); assay: FACS on PBMC
[2] = biological target: T2, human CD3 on cells (human PBMC; Jurkat-CD3-NFAT and TCR/CD3 Effector reporter cells) (human) (UniProt P07766+P04234+P09693); assay: FACS on PBMC
[3] = biological target: T2, human CD3 on cells (human PBMC; Jurkat-CD3-NFAT and TCR/CD3 Effector reporter cells) (human); assay: FACS on human PBMC, PE goat anti-human IgG Fc secondary antibody, geometric mean fluorescence
[4] = biological target: T1, cynomolgus CD3 on cynomolgus PBMC (cynomolgus); assay: FACS on cynomolgus PBMC, PE goat anti-human IgG Fc secondary antibody, geometric mean fluorescence
[5] = biological target: human CD3 protein (human) (UniProt P07766+P04234); assay: ELISA

Measured: binding

B1: 153A6B1 chimeric antibody (antibody, V domains shown)
VH: QVQLKESGPGLVQPSQTLSLTCTVSGFSLTSYNIHWVRQPPGKGLEWMGRIRYNGDTSYNSALKSRLSISRDTSKNQVFLKMSSLQTDDTGTYYCTRGPYGGSREPLFDYWGQGVMVTVSS
VL: DIKMTQSPSFLSAAVGDRVTINCKTSQNINKYLNWFQQKLGAAPKLLIYTTNNLQTGIPSRFSGSGSGTDFTLTISSLQPEDVATYFCLQHGSGYTFGAGTKLELK
binds: all assays above
